In all, about 1,100 compounds were measured (“Wnt reporter firefly/Renilla luciferase ratio relative to plate median”: median about 1.1, highest 2% from about 1.6 on). Only a part is listed here, and it is no random draw.
Test system: HEK293T (UBE3A T485A transfected, BAR Wnt reporter)
Assay: Wnt reporter firefly/Renilla luciferase ratio relative to plate median (fold (linear ratio)); higher = more Wnt/beta-catenin reporter activation
Conditions: 24 h
In short: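 Using Fugene 6, HEK293T cells in white 384-well plates (4500 cells/well; DMEM, 10% FBS, 37°C, 5% CO2) were transfected with a BAR firefly luciferase Wnt reporter, TK-Renilla and an expression plasmid. After four hours, robots dosed the chemicals at 0.01–100 uM, and a Dual-Glo luciferase readout followed 24 h later. Per-plate median-centred firefly/Renilla ratios gave Wnt activity, while per-plate median-centred raw Renilla signals gave cell health. Four biological replicates were averaged.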

With `Nc1nc(Cl)nc2c1ncn2[C@H]1C[C@H](O)[C@@H](CO)O1` [Cladribine] the “Wnt reporter firefly/Renilla luciferase ratio” value (concentration: 0.1 uM) was 0.945, the “Wnt reporter firefly/Renilla luciferase ratio” value (concentration: 1 uM) was 0.885 and the “Wnt reporter firefly/Renilla luciferase ratio” value (concentration: 10 uM) was 0.18.

For `O=C(Nc1ccc(Cl)cc1)Nc1ccc(Cl)c(Cl)c1` [Triclocarban], the “Wnt reporter firefly/Renilla luciferase ratio” value (concentration: 0.1 uM) was 0.857, the “Wnt reporter firefly/Renilla luciferase ratio” value (concentration: 1 uM) was 1.02 and the “Wnt reporter firefly/Renilla luciferase ratio” value (concentration: 10 uM) was 0.454.

In the case of `O=C(CCCCCCC(=O)Nc1ccccc1)NO` [Vorinostat (SAHA)], the “Wnt reporter firefly/Renilla luciferase ratio” value (concentration: 10 uM) is reported as 3.08.

In the case of `c1ccc2ncccc2c1` [Quinoline], the “Wnt reporter firefly/Renilla luciferase ratio” value (concentration: 0.1 uM) is reported as 0.857, the “Wnt reporter firefly/Renilla luciferase ratio” value (concentration: 1 uM) is reported as 1.13 and the “Wnt reporter firefly/Renilla luciferase ratio” value (concentration: 10 uM) is reported as 1.43. For the same compound, the “Wnt reporter firefly/Renilla luciferase ratio” value (concentration: 100 uM) was 1.26.

With `CCCCCCCCCCCCCO` [1-Tridecanol] the “Wnt reporter firefly/Renilla luciferase ratio” value (concentration: 0.1 uM) was 1, the “Wnt reporter firefly/Renilla luciferase ratio” value (concentration: 1 uM) was 1.14 and the “Wnt reporter firefly/Renilla luciferase ratio” value (concentration: 10 uM) was 1.01. The “Wnt reporter firefly/Renilla luciferase ratio” value (concentration: 100 uM) was 1.26.

`Cc1occc1C(=O)Nc1ccc(C(=O)N2CCC(F)(F)/C(=C\C(=O)N3CCC(N4CCCCC4)CC3)c3ccccc32)cc1.Cc1occc1C(=O)Nc1ccc(C(=O)N2CCC(F)(F)/C(=C\C(=O)N3CCC(N4CCCCC4)CC3)c3ccccc32)cc1.O=C(O)/C=C/C(=O)O` was tested, and the “Wnt reporter firefly/Renilla luciferase ratio” value (concentration: 0.1 uM) was 1.22, the “Wnt reporter firefly/Renilla luciferase ratio” value (concentration: 1 uM) was 0.982 and the “Wnt reporter firefly/Renilla luciferase ratio” value (concentration: 10 uM) was 0.94.

With `Cc1cc(C)c(O)c(C)c1` [2,4,6-Trimethylphenol] the “Wnt reporter firefly/Renilla luciferase ratio” value (concentration: 0.1 uM) was 0.78, the “Wnt reporter firefly/Renilla luciferase ratio” value (concentration: 1 uM) was 1 and the “Wnt reporter firefly/Renilla luciferase ratio” value (concentration: 10 uM) was 1.02. The “Wnt reporter firefly/Renilla luciferase ratio” value (concentration: 100 uM) was 1.53.

`Cc1nc(-c2ccccn2)ncc1C(=O)Nn1cc(C)c2cc(F)ccc21` was tested, and the “Wnt reporter firefly/Renilla luciferase ratio” value (concentration: 0.1 uM) was 1.12, the “Wnt reporter firefly/Renilla luciferase ratio” value (concentration: 1 uM) was 1.2 and the “Wnt reporter firefly/Renilla luciferase ratio” value (concentration: 10 uM) was 1.01. The “Wnt reporter firefly/Renilla luciferase ratio” value (concentration: 100 uM) was 1.13.

For `CCCC(=O)OCC` [Ethyl butyrate], the “Wnt reporter firefly/Renilla luciferase ratio” value (concentration: 0.1 uM) was 0.661, the “Wnt reporter firefly/Renilla luciferase ratio” value (concentration: 1 uM) was 0.955 and the “Wnt reporter firefly/Renilla luciferase ratio” value (concentration: 10 uM) was 1. The “Wnt reporter firefly/Renilla luciferase ratio” value (concentration: 100 uM) was 0.983.

For `N#CSCSc1nc2ccccc2s1` [2-(Thiocyanomethylthio)benzothiazole], the “Wnt reporter firefly/Renilla luciferase ratio” value (concentration: 0.01 uM) was 0.895, the “Wnt reporter firefly/Renilla luciferase ratio” value (concentration: 0.1 uM) was 0.88 and the “Wnt reporter firefly/Renilla luciferase ratio” value (concentration: 1 uM) was 1.09. For the same compound, the “Wnt reporter firefly/Renilla luciferase ratio” value (concentration: 10 uM) was 1.06.

`Oc1cc2ccccc2c2ccccc12` [9-Phenanthrol] was tested, and the “Wnt reporter firefly/Renilla luciferase ratio” value (concentration: 0.1 uM) was 0.998, the “Wnt reporter firefly/Renilla luciferase ratio” value (concentration: 1 uM) was 0.862 and the “Wnt reporter firefly/Renilla luciferase ratio” value (concentration: 10 uM) was 1.05.

`Oc1ccc2ccccc2c1/N=N/c1ccccc1` [C.I. Solvent Yellow 14] was tested, and the “Wnt reporter firefly/Renilla luciferase ratio” value (concentration: 0.1 uM) was 1.12, the “Wnt reporter firefly/Renilla luciferase ratio” value (concentration: 1 uM) was 1.2 and the “Wnt reporter firefly/Renilla luciferase ratio” value (concentration: 10 uM) was 1.14. For the same compound, the “Wnt reporter firefly/Renilla luciferase ratio” value (concentration: 100 uM) was 1.37.

In the case of `C#C[C@]1(O)CC[C@H]2[C@@H]3CCC4=CC(=O)CC[C@@H]4[C@H]3CC[C@@]21C` [Norethindrone], the “Wnt reporter firefly/Renilla luciferase ratio” value (concentration: 0.1 uM) is reported as 1.16, the “Wnt reporter firefly/Renilla luciferase ratio” value (concentration: 1 uM) is reported as 1.08 and the “Wnt reporter firefly/Renilla luciferase ratio” value (concentration: 10 uM) is reported as 1.09. The “Wnt reporter firefly/Renilla luciferase ratio” value (concentration: 100 uM) was 0.505.

`COc1ccc([N+](=O)[O-])cc1N` [2-Methoxy-5-nitroaniline] was tested, and the “Wnt reporter firefly/Renilla luciferase ratio” value (concentration: 0.1 uM) was 0.964, the “Wnt reporter firefly/Renilla luciferase ratio” value (concentration: 1 uM) was 0.988 and the “Wnt reporter firefly/Renilla luciferase ratio” value (concentration: 10 uM) was 1.04. The “Wnt reporter firefly/Renilla luciferase ratio” value (concentration: 100 uM) was 1.14.

With `CN(C)[C@@H]1C(O)=C(C(N)=O)C(=O)[C@@]2(O)C(O)=C3C(=O)c4c(O)cccc4[C@@](C)(O)[C@H]3[C@H](O)[C@@H]12.O.O` [Oxytetracycline dihydrate] the “Wnt reporter firefly/Renilla luciferase ratio” value (concentration: 0.01 uM) was 1.55, the “Wnt reporter firefly/Renilla luciferase ratio” value (concentration: 0.1 uM) was 2.3 and the “Wnt reporter firefly/Renilla luciferase ratio” value (concentration: 1 uM) was 1.22. For the same compound, the “Wnt reporter firefly/Renilla luciferase ratio” value (concentration: 10 uM) was 1.34 and the “Wnt reporter firefly/Renilla luciferase ratio” value (concentration: 100 uM) was 0.951.

In the case of `C1CNCCN1` [Piperazine], the “Wnt reporter firefly/Renilla luciferase ratio” value (concentration: 0.1 uM) is reported as 1.01, the “Wnt reporter firefly/Renilla luciferase ratio” value (concentration: 1 uM) is reported as 1.27 and the “Wnt reporter firefly/Renilla luciferase ratio” value (concentration: 10 uM) is reported as 1.51. The “Wnt reporter firefly/Renilla luciferase ratio” value (concentration: 100 uM) was 1.38.

In the case of `Cc1cc2c(cc1C(F)(F)F)N(C(=O)Nc1ccc(Oc3cccnc3C)nc1)CC2.Cl`, the “Wnt reporter firefly/Renilla luciferase ratio” value (concentration: 0.1 uM) is reported as 1.03, the “Wnt reporter firefly/Renilla luciferase ratio” value (concentration: 1 uM) is reported as 1.4 and the “Wnt reporter firefly/Renilla luciferase ratio” value (concentration: 10 uM) is reported as 0.768. The “Wnt reporter firefly/Renilla luciferase ratio” value (concentration: 100 uM) was 0.554.

From the supplement of paper PMC9254222
